# Measured values taken from PMC12431653.
# Biological target: T1, chicken peroxiredoxin 1 (chPRDX1) (chicken) (UniProt P0CB50)
# T1 sequence: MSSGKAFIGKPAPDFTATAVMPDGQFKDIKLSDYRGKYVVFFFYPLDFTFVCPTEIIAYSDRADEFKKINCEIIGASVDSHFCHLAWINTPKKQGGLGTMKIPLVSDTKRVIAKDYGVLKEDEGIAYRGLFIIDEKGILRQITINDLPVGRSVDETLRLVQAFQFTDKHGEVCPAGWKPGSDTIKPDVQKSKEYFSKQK
# Experiment: co-IP; DF-1 lysate in IP lysis buffer; PRDX1 specific antibody on immunomagnetic beads; pcDNA3.1(+) empty vector as control
substance,measurement,value
chicken interferon-related antiviral protein (chIRAP),binding,binds

# Results are given in words; binding and its absence hold for the method and conditions named. Binding seen in cells or lysates may run through a third protein. A result given as binding can be weak or reduced; the word gives no strength.
